At least one structure is not confirmed: it was looked up by name or label, or the drawing left a doubt.
Legend:
[1] = tested on: adenylyl cyclase (HEK293 cells stably expressing EP4 receptor); assay: cAMP assay, HEK293 cells with EP4 receptor; assay type: cell-based, human; conditions: 30 μM forskolin in DMSO, 100 μM 7-DAFSK in water or as PVP K12 complex in water, with 30 μM treprostinil, treprostinil alone = control, 30 min, room temperature
Description: (§1) A cAMP assay was performed using HEK293 cells (human embryonic kidney cells, 1970) with the prostaglandin receptors EP2 or EP4, or the prostacyclin receptor IP. HEK293 cells were incubated with FCS and a radioligand ([^3H] adenine). The formation of cAMP ([^3H] cAMP) was monitored experimentally.
(§2) Day 1: HEK293 cells stably expressing either EP2, EP4, or IP receptors were grown on a 6-well plate in 2 mL DMEM medium containing 10% FCS and 2 μCi [^3H]-adenine and incubated for 16 hours.
(§3) Day 2: Cells were stimulated with 30 μM treprostinil alone or in combination with […] forskolin in DMSO, 100 μM 7-DAFSK in water, or 100 μM 7-DAFSK in 7-DAFSK-PVP K12 complex in water (in fresh medium for 30 minutes at room temperature). Cells were then lysed with 2.5% perchloric acid (PCA) for 30 minutes on ice. The PCA extract was neutralized with KOH and [^3H]cAMP was separated by sequential chromatography using DOWEX and alumina columns. Radioactivity was then measured using a scintillator.
(§4) An aliquot of PCA extract from each well was used to measure radioactivity.

[2] = tested on: adenylyl cyclase (HEK293 cells stably expressing IP receptor); assay: cAMP assay, HEK293 cells with IP receptor; assay type: cell-based, human; conditions: 30 μM forskolin in DMSO, 100 μM 7-DAFSK in water or as PVP K12 complex in water, with 30 μM treprostinil, treprostinil alone = control, 30 min, room temperature
Description: as §1, §2, §3, §4

[3] = tested on: adenylyl cyclase (HEK293 cells stably expressing EP2 receptor); assay: cAMP assay, HEK293 cells with EP2 receptor; assay type: cell-based, human; conditions: 30 μM forskolin in DMSO, 100 μM 7-DAFSK in water or as PVP K12 complex in water, with 30 μM treprostinil, treprostinil alone = control, 30 min, room temperature
Description: as §1, §2, §3, §4

[4] = Amount going into solution in 6 mL H2O after the preparation procedure (0.45 μm filtration, HPLC); assay type: physicochemical; conditions: 20 mg FSK with 40 mg PVP 25, solution method, room temperature
Description: For the complexation of 7-deacetyl-forskolin with PVP K12 (“Kollidon” 12 PF, Ph. Eur., USP, JP; BASF, average molar mass: about 2.5 kD), 20 mg of 7-DAFSK and 20 mg of PVP K12 were triturated in a porcelain crucible and 300 μL of ethanol was added and stirred. After 10 min, 100 μL of H2O was added, stirred, and allowed to stand again for 10 min. The solution was then heated to 140° C. in a drying oven within 40 min and left in it for a total of 45 min. After cooling, 3 mL of H2O was added and stirring was performed for 20-30 min. Then, the suspension was taken up with a syringe and filtered through 0.45 μm filter (hydrophilic). The crucible was rewashed with 3 mL H2O and the wash solution was also filtered through the filter. The content of 7-DAFSK dissolved in the 6 mL H2O was determined by HPLC. For the determination, the 7-DAFSK-PVP complex solution was diluted 1:10 with running medium. A mass fraction of 7-DAFSK in the total complex of 35 wt % was determined.
To optimize the content of 7-DAFSK in the total complex, the weight ratios of 7-DAFSK and PVP K12 used were varied (FIG. 3). […]
20 mg FSK and 40 mg PVP 25 were triturated in a porcelain crucible and 300 μL ethanol (alternatively propanol) was added and stirred. […] The content of FSK dissolved in the 6 mL H2O was determined by HPLC. A mass fraction of FSK in the total complex of <0.01 wt % was determined.

C=C[C@@]1(C)CC(=O)[C@]2(O)[C@@]3(C)[C@@H](O)CCC(C)(C)[C@@H]3[C@H](O)[C@H](OC(C)=O)[C@@]2(C)O1 [FSK, forskolin]
activation of adenylyl cyclase ([3H]cAMP formation) [1]: enhanced activity
activation of adenylyl cyclase ([3H]cAMP formation) [2]: enhanced activity
activation of adenylyl cyclase ([3H]cAMP formation) [3]: enhanced activity
FSK in the filtrate by HPLC [4]: not detectable

Reference: patent US20230346956A1, “COMPLEX OF 7-DEACETYLFORSKOLIN AND PVP” (SciPharm S.à.r.l, priority 2020, published 2023)
